According to patent US8273783B2, “Microbiocides” (Syngenta Crop Protection LLC, priority 2009, dated 2012):
Some of these results come from one statement about several compounds together.

Experiments:
[1] = tested on: Mycosphaerella graminicola (Septoria tritici); assay: Action against Mycosphaerella graminicola (Septoria tritici), liquid culture (Septoria blotch); type: cell-based; conditions: PDB potato dextrose broth, 24 C, photometrically after 4 days
[2] = tested on: Erysiphe Graminis f.sp. Tritici; assay: Action against Erysiphe graminis f.sp. tritici (wheat powdery mildew), leaf segments, preventive; type: in vivo; conditions: 0.02% active ingredient, assessed 7 days after inoculation
Description: (§1) Wheat leaf segments were placed on agar in multiwell plates (24-well format) and sprayed with test solutions (0.02% active ingredient). After drying, the leaf disks were inoculated with a spore suspension of the fungus. After appropriate incubation the activity of a compound was assessed 7 days after inoculation as preventive fungicidal activity.

[3] = tested on: Mycosphaerella arachidis; assay: Action against Mycosphaerella arachidis, liquid culture (early leaf spot); type: cell-based; conditions: PDB potato dextrose broth, 0.02% active ingredient, 24° C., photometrically after 6-7 days
Description: (§2) Conidia of the fungus from cryogenic storage were directly mixed into nutrient broth (PDB potato dextrose broth). After placing a (DMSO) solution of the test compounds (0.02% active ingredient) into a microtiter plate (96-well format) the nutrient broth containing the fungal spores was added. The test plates were incubated at 24° C. and the inhibition of growth was measured photometrically after 6-7 days.

[4] = tested on: Botryotinia fuckelianal; assay: Action against Botryotinia fuckeliana, liquid culture (gray mould); type: cell-based; conditions: nutrient broth, 0.02% active ingredient, 24° C., photometrically after 3-4 days
Description: as §2, with “broth.” for “broth (PDB potato dextrose broth).”, “solution (0.02% active ingredient)” for “solution”, “compounds” for “compounds (0.02% active ingredient)”, “determined” for “measured”, “3-4” for “6-7”

[5] = tested on: Puccinia Recondita; assay: Preventive action against Puccinia recondita (brown rust) on wheat leaf segments; type: in vivo; conditions: 0.02% active ingredient, assessed 8 days after inoculation
Text: Wheat leaf segments were placed on agar in multiwell plates (24-well format) and sprayed with test solutions (0.02% active ingredient). After drying, the leaf disks were inoculated with a spore suspension of the fungus.

[6] = tested on: Pyrenophora teres; assay: Action against Pyrenophora teres (net blotch) on barley leaf segments; type: in vivo; conditions: 0.02% active ingredient, assessed 4 days after inoculation
Description: as §1, with “Barley” for “Wheat”, “4” for “7”

[7] = tested on: Phaeosphaeria nodorum; assay: Preventive action against Phaeosphaeria nodorum (glume blotch) on wheat leaf segments; type: in vivo; conditions: 0.02% active ingredient, assessed 4 days after inoculation
Description: Wheat leaf segments were placed on agar in a multiwell plate (24-well format) and sprayed with test solutions (0.02% active ingredient). After drying, the leaf disks were inoculated with a spore suspension of the fungus. After appropriate incubation the activity of a compound was assessed 4 days after inoculation as preventive fungicidal activity.

[8] = tested on: Puccinia Recondita; assay: Curative action against Puccinia recondita (brown rust) on wheat leaf segments; type: in vivo; conditions: sprayed one day after inoculation, 0.02% active ingredient, assessed 8 days after inoculation
Text: Wheat leaf segments were placed on agar in multiwell plates (24-well format) and inoculated with a spore suspension of the fungus. One day after inoculation the leaf segments were sprayed with test solutions (0.02% active ingredient).

COC(c1csc(Cl)c1Cl)C(C)N(OC)C(=O)c1cn(C)nc1C(F)F (stereo not drawn) [1.037 (diastereoisomer pair 1), 3-difluoromethyl-1-methyl-1H-pyrazole-4-carboxylic acid methoxy-[2-methoxy-1-methyl-2-(4,5-dichlorothiophen-3-yl)ethyl]amide]
≥ 80%: inhibition of growth [1]

CON(C(=O)c1c(C)nn(C)c1F)C(C)Cc1csc(Cl)c1Cl (stereo not shown) [Compound 3.036]
≥ 80%: inhibition (preventive fungicidal activity) [2] | inhibition of growth [3] | inhibition of growth [4] | inhibition of growth [1]

COC(c1c(Cl)sc(Cl)c1Cl)C(C)N(OC)C(=O)c1cn(C)nc1C(F)F (stereo not shown) [Compound 1.016, 3-difluoromethyl-1-methyl-1H-pyrazole-4-carboxylic acid methoxy-[2-methoxy-1-methyl-2-(2,4,5-trichlorothiophene-3-yl)ethyl]amide]
≥ 80%: inhibition of growth [1]

COC(c1c(Cl)sc(Cl)c1Cl)C(C)N(OC)C(=O)c1c(C)nn(C)c1F (stereo not shown) [Compound 3.016]
≥ 80%: inhibition (preventive fungicidal activity) [2] | inhibition of growth [3] | inhibition of growth [4] | inhibition (preventive fungicidal activity) [5] | inhibition (preventive fungicidal activity) [6] | inhibition of growth [1]

CON(C(=O)c1cn(C)nc1C(F)(F)F)C(C)Cc1csc(Cl)c1Cl (stereo not shown) [Compound 2.036]
≥ 80%: inhibition (preventive fungicidal activity) [2] | inhibition of growth [3] | inhibition of growth [4] | inhibition (preventive fungicidal activity) [5] | inhibition of growth [1]

COC(c1csc(Cl)c1Cl)C(C)N(OC)C(=O)c1c(C)nn(C)c1F (stereo not shown) [Compound 3.037]
≥ 80%: inhibition (preventive fungicidal activity) [2] | inhibition of growth [3] | inhibition of growth [4] | inhibition (preventive fungicidal activity) [6] | inhibition of growth [1]

CC(Cc1c(Cl)sc(Cl)c1Cl)N(O)C(=O)c1cn(C)nc1C(F)F (stereo not shown) [Compound 1.012]
≥ 80%: inhibition (preventive fungicidal activity) [2] | inhibition (preventive fungicidal activity) [7] | inhibition of growth [3] | inhibition of growth [4] | inhibition (preventive fungicidal activity) [6] | inhibition of growth [1]

CON(C(=O)c1cn(C)nc1C(F)F)C(C)Cc1c(Cl)sc(Cl)c1Cl (stereo not shown) [Compound 1.001, 3-difluoromethyl-1-methyl-1H-pyrazole-4-carboxylic acid methoxy-[1-methyl-2-(2,4,5-trichlorothiophene-3-yl)ethyl]amide]
≥ 80%: inhibition of growth [1]

CON(C(=O)c1cn(C)nc1C(F)F)C(C)Cc1csc(Cl)c1Cl (stereo not shown) [Compound 1.036]
≥ 80%: inhibition (preventive fungicidal activity) [2] | inhibition (preventive fungicidal activity) [7] | inhibition (curative fungicidal activity) [8] | inhibition of growth [3] | inhibition of growth [4] | inhibition (preventive fungicidal activity) [5] | inhibition (preventive fungicidal activity) [6] | inhibition of growth [1]
